PubChem BioAssay AID493014 (National Center for Advancing Translational Sciences (NCATS), 2011)
This is one part of the list. These are further read-outs of the screen, such as a control signal, another cell line or another target. No call is given for them. Most of these compounds were active or inconclusive in the main read-out, so they are no random draw. Potencies come from curve fits of mixed quality, noted in brackets.

Experiment: qHTS Assay to Find Inhibitors of Chronic Active B-Cell Receptor Signaling
Settings: ABC-DLBCL IkBa-CBG/CBR reporter, luminescence ratio (green luciferase fused to IkBa over red control in TMD8 lymphoma cells), 4 h
Outline: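 TMD8 human ABC-DLBCL cells with doxycycline-inducible IκBα–green luciferase fusion and unfused red luciferase, in 0.5% FBS medium; compounds up to 46 uM, 4 h at 37C. Green/red luminescence ratio, filter-overlap corrected, fitted to concentration-response curves.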

[1] = measured here: CBR red luminescence, cell number
[2] = measured here: IkBa-CBG green luminescence

Row | Compound | AC50 [1] | AC50 [2]
1 | COc1cccc(C(=O)NC2CC3CCCC(C2)N3CC(=O)Nc2ccccc2C(F)(F)F)c1 (stereo not drawn) | 35.5 µM [falling, single point] | –
2 | COc1ccc(CC(=O)Nc2nc3ccccc3s2)cc1S(=O)(=O)N1CCOCC1 | 14.1 µM [falling, partial curve, poor fit] | –
3 | Cc1ccc(C(c2c(C)[nH][nH]c2=O)c2c(C)[nH][nH]c2=O)cc1[N+](=O)[O-] | 14.6 µM [falling, partial curve] | –
4 | CN(C)C(=O)c1ccc(Nc2nnc(-c3ccc(O)cc3)c3ccccc23)cc1 | 14.1 µM [falling, single point] | –
5 | COc1cc(/C=N/NS(=O)(=O)c2ccc(C)cc2)ccc1OCc1ccc(C(=O)O)cc1 | 2 µM [falling, full curve] | –
6 | CCC(Cc1ccccc1)NC(=O)CCn1cccc1 (stereo not drawn) | 0.00461 µM [falling, full curve, poor fit] | –
7 | Cc1ccc(-c2noc(CCCC(=O)NC3CCCC3)n2)cc1 | – | 5.01 µM [rising, partial curve, poor fit]
8 | CCOC(=O)c1c(NC(NC(C)=O)C(Cl)(Cl)Cl)sc2c1CCCC2 (stereo not drawn) | 14.6 µM [falling, partial curve, poor fit] | –
9 | CCc1noc(C)c1C(=O)Nc1nc2ccc(OC)cc2s1 | 23.1 µM [falling, partial curve] | –
10 | COc1ccccc1N=Nc1c(C)noc1C | 20 µM [rising, partial curve, poor fit] | 15.8 µM [falling, single point]
11 | CCC(C)N(C(=O)COC(=O)c1cc([N+](=O)[O-])ccc1N)C1CCS(=O)(=O)C1 (stereo not drawn) | 3.16 µM [falling, partial curve, poor fit] | –
12 | CSc1ccc(NC(=O)NCCCN2CCC(Cc3ccccc3)CC2)cc1 | 14.1 µM [falling, partial curve] | –
13 | CCCc1nc(SCc2cccnc2)c2c(=O)n(C)c(=O)n(C)c2n1 | 5.8 µM [falling, partial curve] | –
14 | CS(=O)(=O)Cc1nc2ccccc2oc1=O | 8.91 µM [falling, partial curve, poor fit] | –
15 | Cc1ccc(NC(=O)/C=N/OCC(=O)NCc2ccccc2Cl)cc1 | 12.6 µM [falling, partial curve] | –
16 | CCOC(=O)CSc1nc2c(sc3cccc(F)c32)c(=O)n1Cc1ccc(OC)cc1 | 6.31 µM [rising, single point] | –
17 | COc1cccc(C2CC3(CC(C)(C)NC(=S)N3)Oc3cc(O)ccc32)c1 (stereo not drawn) | 29.1 µM [falling, single point] | –
18 | c1ccc(OCCOc2ncnc3ccccc23)cc1 | 1.41 µM [rising, partial curve] | –
19 | O=C(O)c1cc2n(n1)CCN(Cc1ccccc1Cl)C2=O | 5.62 µM [falling, single point] | –
20 | CC(=O)c1c(N2CCN(Cc3ccccc3)CC2)[nH]c(-c2ccccc2)nc1=S | 17.8 µM [rising, partial curve, poor fit] | –
21 | CCCCNc1c(-c2ccc(SC3CCCCC3)c(OC)c2)nc2ccc(Cl)cn12 | 16.4 µM [rising, single point] | –

Gathered by group: the compounds so far with fluorine
Row | Compound | AC50 [1] | AC50 [2]
1 | COc1cccc(C(=O)NC2CC3CCCC(C2)N3CC(=O)Nc2ccccc2C(F)(F)F)c1 (stereo not drawn) | 35.5 µM [falling, single point] | –
16 | CCOC(=O)CSc1nc2c(sc3cccc(F)c32)c(=O)n1Cc1ccc(OC)cc1 | 6.31 µM [rising, single point] | –

Remaining list, next part:

Row | Compound | AC50 [1] | AC50 [2]
22 | CCOc1ccc(OCc2ccc(C(=O)N/N=C(\C)c3ccccn3)cc2)cc1 | 12.6 µM [rising, partial curve] | 1.58 µM [falling, full curve]
23 | Cc1c(C(=O)N2CCOCC2)sc(NC(=O)c2ccccc2F)c1C#N | 12.6 µM [falling, single point] | –
24 | CC(C(=O)Nc1ccccc1F)N1C(=O)c2ccccc2C1=O (stereo not drawn) | 3.98 µM [rising, partial curve, poor fit] | –
25 | Cc1ccc2nc(-c3ccc4c(c3)OCCO4)cc(C(=O)O)c2c1 | 10.3 µM [falling, partial curve] | –
26 | O=C(CCl)NC(Cc1ccccc1)c1ccccc1 (stereo not drawn) | 12.6 µM [falling, partial curve] | –
27 | CC(C)CC(NC(=O)c1ccc(Cl)cc1)C(=O)O (stereo not drawn) | 0.461 µM [rising, full curve, poor fit] | –
28 | COc1ccc2c(c1)CCC(C)N2C(=O)C(=O)c1c[nH]c2ccccc12 (stereo not drawn) | 22.4 µM [falling, partial curve, poor fit] | –
29 | CS/C(N)=N/N=C/c1c(O)ccc2ccccc12 | – | 17.8 µM [falling, single point]
30 | O=C(Nc1cccnc1Cl)c1noc2c1CCc1ccccc1-2 | 35.5 µM [rising, single point] | –
31 | Cc1cc(C)cc(NC(=O)C2C3C=CC4(O3)C2C(=O)N(CCCN2CCCCC2)C4C(=O)NC2CCCCC2)c1 (stereo not drawn) | 6.31 µM [rising, partial curve, poor fit] | –
32 | O=C(OCC1CC(c2ccccc2)=NO1)c1ccco1 (stereo not drawn) | 12.6 µM [rising, single point] | –
33 | COc1ccc(NC(=O)NC2CCCc3ccccc32)cc1 (stereo not drawn) | 2.51 µM [falling, partial curve] | –
34 | Cc1cccnc1NC(=O)CN1C(=O)COc2ccc(Cl)cc21 | 12.6 µM [rising, single point] | –
35 | COC(=O)c1sc2ccccc2c1-n1cccc1C(=O)C(=O)Nc1ccc(F)cc1 | 1.78 µM [falling, partial curve, poor fit] | –
36 | CSc1ccccc1-n1nnnc1SCC(=O)Nc1cc(C)ccc1C | 14.6 µM [falling, partial curve] | –
37 | CC(C)(C)c1ccc(N2C(=O)CC(c3ccccc3)C2=O)cc1 (stereo not drawn) | 11.2 µM [rising, partial curve] | –
38 | Cn1cncc1C#Cc1ccc2c(=O)c3ccccc3oc2c1 | 3.26 µM [rising, single point] | –
39 | COc1ccc(-c2c(C)cc3oc(=O)cc(-c4ccccc4)c3c2C)cc1 | 29.1 µM [rising, single point] | –
40 | Cc1nc2c(C(=O)NCCc3ccccc3Cl)c[nH]n2c(=O)c1Cl | 0.411 µM [rising, full curve, poor fit] | –
41 | CSc1nc2c(c(=O)n1-c1ccc(C)cc1)SCC2 | 10.3 µM [rising, partial curve, poor fit] | –
